Our source for the binding values is publication PMC10240701.

Sequences of proteins named here, by UniProt entry; tags and fusion partners are left off. A change or cut given only in a name is not applied to a line headed by its entry.
UniProt P07948: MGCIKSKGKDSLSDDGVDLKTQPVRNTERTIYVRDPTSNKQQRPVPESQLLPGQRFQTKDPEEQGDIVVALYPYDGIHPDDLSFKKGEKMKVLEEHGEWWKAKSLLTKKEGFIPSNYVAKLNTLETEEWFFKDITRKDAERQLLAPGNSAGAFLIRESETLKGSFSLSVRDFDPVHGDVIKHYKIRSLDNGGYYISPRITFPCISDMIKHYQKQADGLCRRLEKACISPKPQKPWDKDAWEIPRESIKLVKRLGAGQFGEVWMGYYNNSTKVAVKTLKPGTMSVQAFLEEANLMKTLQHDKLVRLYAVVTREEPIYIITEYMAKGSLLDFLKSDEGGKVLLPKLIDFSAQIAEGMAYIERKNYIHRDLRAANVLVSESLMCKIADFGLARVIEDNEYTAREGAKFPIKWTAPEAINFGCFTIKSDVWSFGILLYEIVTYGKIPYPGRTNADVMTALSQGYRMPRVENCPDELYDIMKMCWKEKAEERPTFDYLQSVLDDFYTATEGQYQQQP

These are yes or no findings as the source states them, for the method shown. Binding seen in cells or lysates may run through a third protein. Some binding calls cover weakened binding; strength is not graded here. Where a sequence is shown, tags or fusion partners need not be part of it.

In assay [1] the target is T1, ASPA full length, expressed in HEK293T cells for domain mapping (tag not stated) (human) (UniProt P45381).
T1 sequence: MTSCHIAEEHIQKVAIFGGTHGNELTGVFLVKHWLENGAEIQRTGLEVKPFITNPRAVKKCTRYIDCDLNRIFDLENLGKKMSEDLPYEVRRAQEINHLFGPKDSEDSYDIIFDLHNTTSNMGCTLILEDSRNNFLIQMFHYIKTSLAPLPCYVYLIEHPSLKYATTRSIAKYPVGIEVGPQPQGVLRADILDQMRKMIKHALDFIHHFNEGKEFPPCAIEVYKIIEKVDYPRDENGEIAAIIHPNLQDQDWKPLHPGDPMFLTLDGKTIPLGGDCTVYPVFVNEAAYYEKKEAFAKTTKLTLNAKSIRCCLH
The assay is described as follows: co-IP; HEK293T cells cotransfected with the designated plasmids, harvested after 24 h in cold IP lysis buffer; anti-tag antibodies and protein G agarose beads overnight at 4 °C.

In assay [2] the target is GST-HA-LYN (human) (UniProt P07948). The assay is described as follows: pull-down; GST or GST-fused protein (from transfected HEK293T) immobilized on glutathione-Sepharose 4B beads, incubated with HEK293T cell lysates overnight at 4 °C; washed three times with low-salt GST buffer; immunoblot; only the target purified.
The target in assay [3] is Flag-LYN, expressed in PC-3 cells (human) (UniProt P07948). The assay is described as follows: co-IP; PC-3 cells cotransfected with the designated plasmids, harvested after 24 h in cold IP lysis buffer; anti-tag antibodies and protein G agarose beads overnight at 4 °C.

With “LYN (1-230) (from UniProt P07948 1-230) (domain or fragment)”, the binding result in assay [1] is given as “no binding”.
“LYN (231-512) (from UniProt P07948 231-512) (domain or fragment)”: the binding result in assay [1] was “binds”.

B1: Flag-ASPA, expressed in HEK293T cells (enzyme, UniProt P45381 1-313)
chain: MTSCHIAEEHIQKVAIFGGTHGNELTGVFLVKHWLENGAEIQRTGLEVKPFITNPRAVKKCTRYIDCDLNRIFDLENLGKKMSEDLPYEVRRAQEINHLFGPKDSEDSYDIIFDLHNTTSNMGCTLILEDSRNNFLIQMFHYIKTSLAPLPCYVYLIEHPSLKYATTRSIAKYPVGIEVGPQPQGVLRADILDQMRKMIKHALDFIHHFNEGKEFPPCAIEVYKIIEKVDYPRDENGEIAAIIHPNLQDQDWKPLHPGDPMFLTLDGKTIPLGGDCTVYPVFVNEAAYYEKKEAFAKTTKLTLNAKSIRCCLH
B1: the binding result in assay [2] is recorded as “binds”.

B2: ASPA co-expressed with Flag-tagged kinases in PC-3 cells (tag not stated) (enzyme, UniProt P45381 1-313)
chain: MTSCHIAEEHIQKVAIFGGTHGNELTGVFLVKHWLENGAEIQRTGLEVKPFITNPRAVKKCTRYIDCDLNRIFDLENLGKKMSEDLPYEVRRAQEINHLFGPKDSEDSYDIIFDLHNTTSNMGCTLILEDSRNNFLIQMFHYIKTSLAPLPCYVYLIEHPSLKYATTRSIAKYPVGIEVGPQPQGVLRADILDQMRKMIKHALDFIHHFNEGKEFPPCAIEVYKIIEKVDYPRDENGEIAAIIHPNLQDQDWKPLHPGDPMFLTLDGKTIPLGGDCTVYPVFVNEAAYYEKKEAFAKTTKLTLNAKSIRCCLH
On to B2, for which, in assay [3], the binding result is listed as “binds”.
